Laboratory results from paper doi:10.1101/2023.09.25.556595.
Where two headings read alike, the source gives them in different places. Results are given in words; binding and its absence hold for the method and conditions named. Binding seen in cells or lysates may run through a third protein. Some entries that bind do so weakly or less than the wild type. Where a sequence is shown, tags or fusion partners need not be part of it.

Columns and labels:
Experiment in all cases: co-IP
[1] = target: T1, 3XFLAG-FIGNL1, full length (human) (UniProt Q6PIW4)
T1 sequence: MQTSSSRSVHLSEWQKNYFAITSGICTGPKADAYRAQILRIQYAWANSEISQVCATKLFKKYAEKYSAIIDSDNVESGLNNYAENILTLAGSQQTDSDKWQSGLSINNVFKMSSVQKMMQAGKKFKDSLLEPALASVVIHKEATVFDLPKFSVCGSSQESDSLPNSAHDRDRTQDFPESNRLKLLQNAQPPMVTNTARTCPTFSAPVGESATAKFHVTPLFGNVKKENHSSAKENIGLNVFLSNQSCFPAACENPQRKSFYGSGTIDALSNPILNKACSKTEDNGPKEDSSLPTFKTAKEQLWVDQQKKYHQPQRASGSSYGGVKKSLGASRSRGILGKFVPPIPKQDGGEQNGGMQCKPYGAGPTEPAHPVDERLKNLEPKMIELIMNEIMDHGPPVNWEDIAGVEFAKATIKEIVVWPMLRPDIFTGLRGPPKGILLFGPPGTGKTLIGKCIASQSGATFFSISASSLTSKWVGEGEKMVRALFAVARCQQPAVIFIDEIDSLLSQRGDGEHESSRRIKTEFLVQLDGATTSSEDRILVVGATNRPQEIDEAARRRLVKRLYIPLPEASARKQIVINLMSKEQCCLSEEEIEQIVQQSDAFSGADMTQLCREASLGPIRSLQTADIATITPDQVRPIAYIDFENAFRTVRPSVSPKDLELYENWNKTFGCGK

[2] = target: T2, 3XFlag-RADIF, full length (UniProt Q9NSG2)
T2 sequence: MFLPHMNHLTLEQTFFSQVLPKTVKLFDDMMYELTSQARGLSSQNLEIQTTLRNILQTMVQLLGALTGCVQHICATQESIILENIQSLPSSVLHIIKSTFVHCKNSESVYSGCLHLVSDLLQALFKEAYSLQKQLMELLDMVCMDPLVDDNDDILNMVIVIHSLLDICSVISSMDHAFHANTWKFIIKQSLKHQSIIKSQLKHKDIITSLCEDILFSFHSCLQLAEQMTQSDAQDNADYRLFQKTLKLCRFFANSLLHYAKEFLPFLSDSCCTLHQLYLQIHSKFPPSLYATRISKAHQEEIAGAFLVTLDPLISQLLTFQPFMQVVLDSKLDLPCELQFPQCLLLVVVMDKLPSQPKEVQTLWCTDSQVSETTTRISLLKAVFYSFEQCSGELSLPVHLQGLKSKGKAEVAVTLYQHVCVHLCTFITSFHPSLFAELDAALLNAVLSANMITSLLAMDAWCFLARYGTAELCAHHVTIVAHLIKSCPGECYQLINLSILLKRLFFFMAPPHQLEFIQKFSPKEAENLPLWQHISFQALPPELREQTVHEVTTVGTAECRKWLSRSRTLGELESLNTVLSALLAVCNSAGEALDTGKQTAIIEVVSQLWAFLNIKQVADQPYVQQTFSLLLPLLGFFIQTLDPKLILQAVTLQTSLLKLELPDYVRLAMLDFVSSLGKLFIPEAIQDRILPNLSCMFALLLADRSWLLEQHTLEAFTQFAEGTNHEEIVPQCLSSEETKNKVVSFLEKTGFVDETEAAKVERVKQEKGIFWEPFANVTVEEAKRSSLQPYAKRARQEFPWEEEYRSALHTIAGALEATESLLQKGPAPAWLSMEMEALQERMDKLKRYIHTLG

[3] = target: T3, 3XFlag-RADIF, full length, Q9NSG2; settings: remark: other sources report otherwise
T3 chain: T2 sequence

[4] = target: T1, 3XFLAG-FIGNL1, full length (human); remark: listed apart in the source
[5] = target: T4, FIGNL1 N-terminal 120aa region, 3X-FLAG and SV40 NLS tagged (human), Q6PIW4; settings: remark: other sources report otherwise
T4 chain: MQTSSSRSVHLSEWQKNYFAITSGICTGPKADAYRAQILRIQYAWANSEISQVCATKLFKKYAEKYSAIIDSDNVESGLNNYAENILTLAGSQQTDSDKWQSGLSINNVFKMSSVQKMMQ

Molecule: HA-tagged RAD51 (from UniProt Q06609 1-339)
- binding [1]: binds

B1: endogenous FIGNL1 (protein, UniProt Q6PIW4 1-674)
chain: T1 sequence
- binding [2]: binds

B2: FIGNL1-GFP (protein, UniProt Q6PIW4 1-674)
chain: T1 sequence
- binding [2]: binds

B3: HA-tagged RAD51, Q06609 1-339 (protein)
chain: MAMQMQLEANADTSVEEESFGPQPISRLEQCGINANDVKKLEEAGFHTVEAVAYAPKKELINIKGISEAKADKILAEAAKLVPMGFTTATEFHQRRSEIIQITTGSKELDKLLQGGIETGSITEMFGEFRTGKTQICHTLAVTCQLPIDRGGGEGKAMYIDTEGTFRPERLLAVAERYGLSGSDVLDNVAYARAFNTDHQTQLLYQASAMMVESRYALLIVDSATALYRTDYSGRGELSARQMHLARFLRMLLRLADEFGVAVVITNQVVAQVDGAAMFAADPKKPIGGNIIAHASTTRLYLRKGRGETRICKIYDSPCLPEAEAMFAINADGVGDAKD
- binding [3]: binds

B4: GFP-tagged RADIF (c1orf112) (protein, UniProt Q9NSG2 1-853)
chain: T2 sequence
- binding [4]: binds

B5: GFP-tagged RADIF (c1orf112), Q9NSG2 1-853 (protein)
chain: T2 sequence
- binding [5]: binds
